Test results taken from PMC9638859.
These are yes or no findings as the source states them, for the method shown. In cells and extracts the contact can be indirect. Binding can be weak; no strength is given.

Biological target: ERK (mouse (endogenous in TDiN ES cells))
Assay: co-IP; endogenous immunoprecipitation from TDiN ES cell lysate, with or without induction of NANOG by Doxycycline; CoIP lysis buffer with 350 mM NaCl, 0.7% NP40; protein A/G magnetic beads; washed with TBS150; western blot

B1: NONO (protein, UniProt Q99K48 1-473)
chain: MQSNKAFNLEKQNHTPRKHHQHHHQQHHQQQQQQQQQQPPPPIPANGQQASSQNEGLTIDLKNFRKPGEKTFTQRSRLFVGNLPPDITEEEMRKLFEKYGKAGEVFIHKDKGFGFIRLETRTLAEIAKVELDNMPLRGKQLRVRFACHSASLTVRNLPQYVSNELLEEAFSVFGQVERAVVIVDDRGRPSGKGIVEFSGKPAARKALDRCSEGSFLLTTFPRPVTVEPMDQLDDEEGLPEKLVIKNQQFHKEREQPPRFAQPGSFEYEYAMRWKALIEMEKQQQDQVDRNIKEAREKLEMEMEAARHEHQVMLMRQDLMRRQEELRRMEELHNQEVQKRKQLELRQEEERRRREEEMRRQQEEMMRRQQEGFKGTFPDAREQEIRMGQMAMGGAMGINNRGAMPPAPVPPGTPAPPGPATMMPDGTLGLTPPTTERFGQAATMEGIGAIGGTPPAFNRPAPGAEFAPNKRRRY
binding: binds
